We go through six molecules from patent US20220306744A1.

By UniProt entry, the sequences of proteins in these tests, tags left out. Where a name states a change or a piece, a line headed by the entry shows the natural chain unless it says otherwise.
UniProt Q15116: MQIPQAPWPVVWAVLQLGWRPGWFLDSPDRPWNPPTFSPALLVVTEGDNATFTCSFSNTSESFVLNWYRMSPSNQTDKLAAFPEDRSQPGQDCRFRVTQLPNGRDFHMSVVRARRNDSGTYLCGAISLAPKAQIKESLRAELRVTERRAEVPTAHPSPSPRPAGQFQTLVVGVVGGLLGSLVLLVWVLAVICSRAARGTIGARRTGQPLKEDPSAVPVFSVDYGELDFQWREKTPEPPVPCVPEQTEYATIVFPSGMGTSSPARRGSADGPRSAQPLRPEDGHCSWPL

For assay [1], the target named is huPD-1 extracellular domain (PepScan peptide arrays) (human). The experiment in a line: PepScan ELISA, linear and constrained peptides. Background: An ELISA detects its analyte on a solid surface through an enzyme-linked reagent.
The target is the same in assay [2]. Description: PepScan ELISA, discontinuous peptides, bivalent format.
Assay [3] concerns the target human PD-1 expressed on cells (CHO TREX human PD1 cell line, full-length human PD-1 sequence) (human) (UniProt Q15116). Description: worded summary of the screens.

Numbering of substitutions follows the chain as printed. These are yes or no findings as the source states them, for the method shown. Some entries that bind do so weakly or less than the wild type.

B1: 1.1a (VHH)
VHH: EVQLLESGGGSVQPGRSLRLSCAASGFTFDDHAMHWVRQAPGKGLEWVSGISWNSGSMGYADSVKDRFTISRDNAKSSLYLQMNSLRAEDTALYYCVREKGPGLTGSTADYYGLDVWGQGTMVTVSS
In the case of B1, the binding result in assay [1] and in assay [2] was “binds” throughout.

B2: 1.19a (VHH)
VHH: B1 VHH with L5V, S11L, H32Y, G44D, S55G, D66G, S77N
Consider B2, for which the binding entry in assay [3] was “binds”.

B3: 1.26a (VHH)
VHH: B1 VHH with L5V, S11L, H32Y, G44D, S55G, D66G, S77N, V116A
On to B3, for which the binding entry in assay [3] is on record as “binds”.

B4: 1.20a (VHH)
VHH: B1 VHH with L5V, S11L, H32Y, G44D, S55G, D66G, S77N
As for B4, the binding entry in assay [3] was “binds”.

B5: 1.51a (VHH)
VHH: EVQLVESGGGVVRPGGSLRLSCAASGFTFDDYAMSWVRQAPGKGLEWVSGITWNGGSTGYADSVKDRFTISRDNAKNSLYLQMNSLRAEDTALYYCVRDKYSYAWSYDGFDIWGQGTMVTVSS
Regarding B5, the binding entry in assay [2] is given as “binds”.

B6: 1.103a (VHH)
VHH: B5 VHH with G109D
Turning to B6, the binding result in assay [3] is “binds”.
